Experimental data taken from patent US8536215B2, “Pyrazole microbiocides” (Syngenta Crop Protection LLC, priority 2010, dated 2013).
Some results were stated once for a whole list of compounds, not compound by compound.

Experiments:
Septoria tritici = test: Action against Septoria tritici - fungal growth assay; assay type: cell-based; details: 0.002% active ingredient, PDB broth, 24° C., photometric after 72 hrs
Method: (§1) Conidia of the fungus from cryogenic storage were directly mixed into nutrient broth (PDB potato dextrose broth). After placing a (DMSO) solution of the test compounds (0.002% active ingredient) into a microtiter plate (96-well format) the nutrient broth containing the fungal spores was added. The test plates were incubated at 24° C. and the inhibition of growth was determined photometrically after 72 hrs. The activity of a compound was expressed as fungal growth inhibition (0=no growth inhibition, ratings of 80% to 99% mean good to very good inhibition, 100%=complete inhibition).

[1] = system: Mycosphaerella arachidis (Cercospora arachidicola [Anamorph]); test: Action against Mycosphaerella arachidis (early leaf spot of groundnut) - fungal growth assay; assay type: cell-based; details: 0.002% active ingredient, PDB broth, 24° C., photometric after 6-7 days
Method: as §1, with “measured” for “determined”, “6-7 days.” for “72 hrs.”

[2] = system: Monographella nivalis (Anamorph: Fusarium nivale, Microdochium nivale); test: Action against Monographella nivalis (snow mould) - fungal growth assay; assay type: cell-based; details: 0.002% active ingredient, PDB broth, 24° C., photometric after 72 hrs
Method: as §1, with “DMSO-solution” for “(DMSO) solution”, “measured” for “determined”, “hrs” for “hrs. The activity of a compound was expressed as fungal growth inhibition”

Pyrenophora teres = test: Action against Pyrenophora teres (net blotch) on barley leaf segments, preventive; assay type: in vivo; details: 0.02% active ingredient sprayed on barley leaf segments, assessed 4 days after inoculation
Method: (§2) Barley leaf segments were placed on agar in multiwell plates (24-well format) and sprayed with test solutions (0.02% active ingredient). After drying, the leaf disks were inoculated with a spore suspension of the fungus. After appropriate incubation the activity of a compound was assessed 4 days after inoculation as preventive fungicidal activity.

Botrytis cinerea = test: Action against Botrytis cinerea - fungal growth assay; assay type: cell-based; details: 0.002% active ingredient, PDB broth, 24° C., photometric after 3-4 days
Method: as §1, with “storage was” for “storage were”, “was measured” for “was determined”, “after 3-4 days.” for “after 72 hrs.”

[3] = system: Erysiphe graminis f. sp. tritici; test: Action against Erysiphe graminis f. sp. tritici (wheat powdery mildew), wheat leaf segments, preventive; assay type: in vivo; details: 0.02% active ingredient sprayed on wheat leaf segments, assessed 7 days after inoculation
Method: as §2, with “Wheat leaf” for “Barley leaf”, “assessed 7” for “assessed 4”

Puccinia recondita [4] = test: Curative action against Puccinia recondita (brown rust) on wheat leaf segments; assay type: in vivo; details: 0.02% active ingredient sprayed one day after inoculation of wheat leaf segments, assessed 8 days after inoculation
Method: Wheat leaf segments were placed on agar in multiwell plates (24-well format) and inoculated with a spore suspension of the fungus. One day after inoculation the leaf segments were sprayed with test solutions (0.02% active ingredient). After appropriate incubation the activity of a compound was assessed 8 days after inoculation as curative fungicidal activity.

Rhizoctonia Solani = test: Action against Rhizoctonia solani - fungal growth assay; assay type: cell-based; details: 0.002% active ingredient, PDB broth, 24° C., photometric after 3-4 days
Method: as §1, with “Mycelial fragments of a newly grown liquid culture” for “Conidia”, “fungus” for “fungus from cryogenic storage”, “measured” for “determined”, “3-4 days.” for “72 hrs.”

Puccinia recondita [5] = test: Protective action against Puccinia recondita (brown rust) on wheat leaf segments; assay type: in vivo; details: 0.02% active ingredient sprayed on wheat leaf segments, assessed 8 days after inoculation
Method: as §2, with “Wheat leaf” for “Barley leaf”, “assessed 8” for “assessed 4”

CON(CC1CC=CCC1)C(=O)c1cn(C)nc1C(F)F (stereo not shown) [Compound 1.001]
≥ 80%: fungal growth inhibition (Septoria tritici) | fungal growth inhibition [1] | inhibition of growth [2]

CON(CC1CC2C=CC1C2)C(=O)c1cn(C)nc1C(F)F (stereo not shown) [Compound 1.046]
≥ 80%: fungal growth inhibition (Septoria tritici) | fungal growth inhibition [1] | inhibition of growth [2] | preventive fungicidal activity (inhibition) (Pyrenophora teres)

CON(C(=O)c1cn(C)nc1C(F)F)C(C)C1CC2C=CC1C2 (stereo not shown) [Compound 1.093]
≥ 80%: fungal growth inhibition (Septoria tritici) | fungal growth inhibition (Botrytis cinerea) | preventive fungicidal activity (inhibition) [3] | fungal growth inhibition [1] | inhibition of growth [2] | preventive fungicidal activity (inhibition) (Pyrenophora teres)

CON(C(=O)c1cn(C)nc1C(F)F)C(C)C1CC(C)=CC(C)C1 (stereo not shown) [Compound 1.095]
≥ 80%: fungal growth inhibition (Septoria tritici) | fungal growth inhibition (Botrytis cinerea) | preventive fungicidal activity (inhibition) [3] | fungal growth inhibition [1] | inhibition of growth [2] | curative fungicidal activity (inhibition) (Puccinia recondita [4]) | fungal growth inhibition (Rhizoctonia Solani) | preventive fungicidal activity (inhibition) (Puccinia recondita [5]) | preventive fungicidal activity (inhibition) (Pyrenophora teres)
